The values below come from patent US20220275372A1 (priority 2019, published 2022).

A short description of this data set: general procedure: Fmoc solid-phase peptide synthesis; Fmoc-β-Ala-OH preloaded Wang resin (0.19 or 0.46 mmol g^−1, Merck Millipore); PyBOP/NMM (Intavis). To be noted: conjugation step, dried weight of lyophilised purified P-PMO.
Substance Ac-RBRRBRFQILYRBHBH-B returned a conjugation yield of 36%. For Ac-RBRRBRFQILYRBHBH-E, the conjugation yield amounted to 35%. With Ac-RBRRBRFQILYRBRBR-B, the conjugation yield worked out at 41%. Ac-RBRRBRRFQILYRBHBH-Ab showed a conjugation yield of 17%.

Turning to Ac-RBRRBRRFQILYRBHBH-B, the conjugation yield turned out to be 31%.

Consider Ac-RBRRBRRFQILYRBHBH-E, for which the conjugation yield stood at 25%. Turning to Ac-RBRRBRRFQILYRBRBR-B, the conjugation yield came out at 36%.

As for Succ-RBRRBRRFQILYRBHBH-NH2, the conjugation yield is 37%.
